Laboratory results reported in PMC8745740.
No constants are given. Whether binding was seen depends on the method and setting. In cells and extracts the contact can be indirect. Some entries that bind do so weakly or less than the wild type.

The chains behind the UniProt entries cited, without tags or fusion partners.
UniProt G9I6Y2: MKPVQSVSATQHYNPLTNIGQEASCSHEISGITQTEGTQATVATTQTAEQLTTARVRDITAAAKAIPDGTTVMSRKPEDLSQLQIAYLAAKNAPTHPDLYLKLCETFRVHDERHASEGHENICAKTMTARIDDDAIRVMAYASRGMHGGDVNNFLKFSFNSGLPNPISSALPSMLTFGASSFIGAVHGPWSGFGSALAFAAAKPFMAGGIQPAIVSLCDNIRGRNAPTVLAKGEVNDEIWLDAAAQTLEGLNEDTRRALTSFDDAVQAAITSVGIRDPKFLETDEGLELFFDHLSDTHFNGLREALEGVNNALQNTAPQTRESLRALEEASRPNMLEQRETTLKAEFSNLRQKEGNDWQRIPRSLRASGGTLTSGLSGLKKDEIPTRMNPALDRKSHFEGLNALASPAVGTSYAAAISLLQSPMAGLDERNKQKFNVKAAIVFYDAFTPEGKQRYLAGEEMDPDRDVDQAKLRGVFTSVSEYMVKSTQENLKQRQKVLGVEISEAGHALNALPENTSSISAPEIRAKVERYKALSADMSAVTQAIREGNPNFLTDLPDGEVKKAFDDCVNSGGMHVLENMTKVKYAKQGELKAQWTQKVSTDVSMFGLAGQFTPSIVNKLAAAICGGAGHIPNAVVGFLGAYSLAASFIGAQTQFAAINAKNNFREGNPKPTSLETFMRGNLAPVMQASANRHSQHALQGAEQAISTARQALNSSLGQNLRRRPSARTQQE
UniProt K7ZLE1: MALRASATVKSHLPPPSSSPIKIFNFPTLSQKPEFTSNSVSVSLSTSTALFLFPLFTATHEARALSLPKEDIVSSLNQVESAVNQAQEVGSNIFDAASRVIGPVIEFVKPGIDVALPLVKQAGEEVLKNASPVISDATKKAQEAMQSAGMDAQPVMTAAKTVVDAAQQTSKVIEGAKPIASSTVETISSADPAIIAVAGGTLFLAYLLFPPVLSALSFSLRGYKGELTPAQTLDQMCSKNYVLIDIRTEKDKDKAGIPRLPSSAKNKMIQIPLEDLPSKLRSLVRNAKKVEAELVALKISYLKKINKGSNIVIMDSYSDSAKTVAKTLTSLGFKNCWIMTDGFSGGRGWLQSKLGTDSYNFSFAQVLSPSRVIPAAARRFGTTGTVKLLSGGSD

Legend:
[1] = target: HopAU1-cYFP (Pseudomonas syringae pv. actinidiae strain M228) (UniProt G9I6Y2); test: split reporter; BiFC: HopAU1-cYFP and nYFP-CaS co-expressed in N. benthamiana leaves by agroinfiltration; YFP read by confocal microscopy (excitation 514 nm, emission 530-575 nm)
[2] = target: HopAU1-GFP fusion protein (Pseudomonas syringae pv. actinidiae strain M228) (UniProt G9I6Y2); test: co-IP; HopAU1-GFP and CaS-mCherry transiently co-expressed in N. benthamiana, total protein extracted after 2 days; incubated with anti-GFP magnetic beads (GFP-Trap, ChromoTek) for 2 h at 4 °C; western blot with anti-GFP and anti-mCherry

| Substance | binding [1] | binding [2] |
| --- | --- | --- |
| nYFP-CaS (calcium sensing receptor of N. benthamiana) (from UniProt K7ZLE1 1-394) | binds | – |
| CaS-mCherry (calcium sensing receptor of N. benthamiana, NbCaS) (from UniProt K7ZLE1 1-394) | – | binds |
